Two substances from paper PMC6416313 can be followed below.

Amino acid sequences for entries named in this document (tags omitted). Residues count along the entry.
UniProt P19490, residues 19-907: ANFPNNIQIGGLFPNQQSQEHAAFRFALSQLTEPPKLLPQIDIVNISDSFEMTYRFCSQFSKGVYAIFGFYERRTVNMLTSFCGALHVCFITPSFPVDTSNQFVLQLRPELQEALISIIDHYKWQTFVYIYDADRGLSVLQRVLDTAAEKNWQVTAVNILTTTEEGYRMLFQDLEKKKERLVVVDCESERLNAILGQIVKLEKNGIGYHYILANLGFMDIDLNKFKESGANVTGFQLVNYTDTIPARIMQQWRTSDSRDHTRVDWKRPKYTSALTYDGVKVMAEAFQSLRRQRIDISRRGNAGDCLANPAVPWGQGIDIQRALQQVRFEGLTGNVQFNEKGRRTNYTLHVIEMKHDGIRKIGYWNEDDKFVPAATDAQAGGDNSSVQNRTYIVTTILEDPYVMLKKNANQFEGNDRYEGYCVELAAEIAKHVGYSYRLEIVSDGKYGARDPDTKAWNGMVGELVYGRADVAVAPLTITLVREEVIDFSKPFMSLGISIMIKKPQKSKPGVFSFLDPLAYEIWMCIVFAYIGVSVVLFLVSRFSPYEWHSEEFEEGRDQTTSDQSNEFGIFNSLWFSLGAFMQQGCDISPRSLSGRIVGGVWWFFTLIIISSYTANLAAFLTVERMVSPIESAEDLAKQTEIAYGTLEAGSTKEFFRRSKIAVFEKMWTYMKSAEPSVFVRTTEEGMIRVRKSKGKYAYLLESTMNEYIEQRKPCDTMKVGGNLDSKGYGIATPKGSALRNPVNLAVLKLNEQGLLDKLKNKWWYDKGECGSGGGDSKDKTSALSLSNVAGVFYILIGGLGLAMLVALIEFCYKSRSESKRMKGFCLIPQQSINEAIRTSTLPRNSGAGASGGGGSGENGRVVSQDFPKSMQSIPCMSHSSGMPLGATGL
UniProt P19491, residues 22-883: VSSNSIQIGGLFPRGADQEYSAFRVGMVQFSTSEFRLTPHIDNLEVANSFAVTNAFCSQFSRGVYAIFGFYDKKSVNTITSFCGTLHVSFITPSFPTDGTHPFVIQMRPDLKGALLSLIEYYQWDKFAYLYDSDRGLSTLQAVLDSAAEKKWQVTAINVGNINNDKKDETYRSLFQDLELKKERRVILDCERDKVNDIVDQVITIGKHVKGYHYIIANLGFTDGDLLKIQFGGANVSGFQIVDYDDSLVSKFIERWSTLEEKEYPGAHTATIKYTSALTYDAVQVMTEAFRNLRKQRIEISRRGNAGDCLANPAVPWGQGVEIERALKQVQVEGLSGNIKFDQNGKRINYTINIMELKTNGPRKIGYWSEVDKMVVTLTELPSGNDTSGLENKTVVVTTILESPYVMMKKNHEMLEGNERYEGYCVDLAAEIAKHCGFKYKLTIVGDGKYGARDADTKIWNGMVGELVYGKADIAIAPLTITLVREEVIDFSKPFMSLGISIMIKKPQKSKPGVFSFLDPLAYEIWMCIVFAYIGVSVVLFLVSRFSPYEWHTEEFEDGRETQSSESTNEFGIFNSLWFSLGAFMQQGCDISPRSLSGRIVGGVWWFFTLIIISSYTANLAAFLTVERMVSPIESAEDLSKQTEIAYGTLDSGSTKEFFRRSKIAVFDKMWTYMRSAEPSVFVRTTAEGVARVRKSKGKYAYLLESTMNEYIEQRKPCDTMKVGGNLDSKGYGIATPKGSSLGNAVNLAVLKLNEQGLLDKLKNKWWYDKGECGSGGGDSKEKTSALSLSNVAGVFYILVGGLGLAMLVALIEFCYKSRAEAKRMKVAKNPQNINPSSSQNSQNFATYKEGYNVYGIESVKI

No constants are given. Whether binding was seen depends on the method and setting. Binding seen in cells or lysates may run through a third protein. Some results given as binding are weak or reduced against the parent protein; the word gives no strength. Where a sequence is shown, tags or fusion partners need not be part of it.

For the experiment, the target named is T1, myc-Phldb2 (UniProt Q8K1N2).
T1 sequence: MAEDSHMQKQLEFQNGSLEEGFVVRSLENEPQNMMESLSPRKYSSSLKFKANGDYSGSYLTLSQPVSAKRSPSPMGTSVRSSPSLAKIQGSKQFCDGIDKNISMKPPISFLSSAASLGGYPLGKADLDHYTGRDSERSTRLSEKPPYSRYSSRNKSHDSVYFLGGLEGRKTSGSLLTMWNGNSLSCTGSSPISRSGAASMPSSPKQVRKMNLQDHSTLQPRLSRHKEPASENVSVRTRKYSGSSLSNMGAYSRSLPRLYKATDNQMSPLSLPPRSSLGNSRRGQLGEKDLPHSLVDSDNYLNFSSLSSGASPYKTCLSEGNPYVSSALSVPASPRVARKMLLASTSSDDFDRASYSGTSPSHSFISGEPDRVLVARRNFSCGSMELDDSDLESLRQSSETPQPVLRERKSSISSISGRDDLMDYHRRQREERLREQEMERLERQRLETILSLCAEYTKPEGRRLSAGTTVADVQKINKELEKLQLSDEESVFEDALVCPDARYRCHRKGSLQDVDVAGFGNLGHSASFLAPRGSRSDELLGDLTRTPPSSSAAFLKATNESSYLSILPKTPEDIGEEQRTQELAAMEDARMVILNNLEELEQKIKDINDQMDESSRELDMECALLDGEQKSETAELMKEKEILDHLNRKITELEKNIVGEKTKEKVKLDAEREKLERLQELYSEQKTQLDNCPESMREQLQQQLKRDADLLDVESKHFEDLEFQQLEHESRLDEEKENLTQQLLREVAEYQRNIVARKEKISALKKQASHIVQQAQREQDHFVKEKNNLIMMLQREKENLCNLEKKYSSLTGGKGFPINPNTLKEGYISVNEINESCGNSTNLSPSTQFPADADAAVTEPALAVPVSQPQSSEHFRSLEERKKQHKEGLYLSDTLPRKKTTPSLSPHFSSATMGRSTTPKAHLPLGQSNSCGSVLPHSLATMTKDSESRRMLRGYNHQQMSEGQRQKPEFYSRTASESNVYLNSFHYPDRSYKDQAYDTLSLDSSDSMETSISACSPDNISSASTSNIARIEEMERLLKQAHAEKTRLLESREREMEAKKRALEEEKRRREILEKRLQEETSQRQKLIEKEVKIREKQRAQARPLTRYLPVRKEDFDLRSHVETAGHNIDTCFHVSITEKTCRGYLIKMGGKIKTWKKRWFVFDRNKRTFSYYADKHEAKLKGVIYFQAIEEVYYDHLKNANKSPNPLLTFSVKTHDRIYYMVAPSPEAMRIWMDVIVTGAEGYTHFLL
Put plainly: co-IP; myc-Phldb2 (or myc-mock) and GFP-GluA1 or GFP-GluA2 co-transfected in COS-7 cells; lysates immunoprecipitated with anti-myc antibody.

For “GFP-GluA1 (from UniProt P19490 19-907) (receptor)”, the binding entry is listed as “binds”. To “GFP-GluA2 (from UniProt P19491 22-883) (receptor)” belongs “binds”.
